PubChem BioAssay AID504791, Drosophila RNAi Screening Center | 2011
Assay: 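Genes whose knock-down strengthens or weakens small-RNA reporter silencing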 (primary screen). System: Drosophila S2-derived reporter cells. Reagents: long dsRNA against Drosophila genes, about 150-250 ng dsRNA per well (siRNA assay); about 80-120 ng (miRNA assay). Timing: about 5 days (siRNA assay); about 4 days (miRNA assay). Treatment: copper sulfate induction of reporters: 25 µM (siRNA assay); 200 mM stated (miRNA assay), 1-2 days before reading. Read-out: 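Dual luciferase assay: Renilla to firefly signal ratio in each well, scaled to the mean ratio of its plate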. Units: stable assay Renilla, run 1 in luminescence; stable assay firefly, run 1 in luminescence. Rule for the call: 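a well was a first-pass pick when its plate-scaled ratio rose above 1.5 (siRNA assay) or 1.6 (miRNA assay), or dropped below 0.6; a gene counted only if two separate dsRNAs agreed on retest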.
The screen tested about 23,000 reagents; shown is a random part of those that have a named target and a result. Over the whole deposit, 199 (0.86%) got an active call. 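Plate-scaled ratios behind the calls are not deposited; printed light signals are raw; many rows marked increased or decreased are still called inactive.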 A number with no mark means an inactive call. Not stated in the record: the direction of the score.

Nup133 [DRSC16150] showed stable assay Renilla, run 1 = 12792; stable assay firefly, run 1 = 3.43e5.
Ir7b [DRSC18009] scored stable assay Renilla, run 1 = 6554; stable assay firefly, run 1 = 3.70e5.
Svil [DRSC07981] scored stable assay Renilla, run 1 = 5388; stable assay firefly, run 1 = 4.32e5.
Svil [DRSC08296] showed stable assay Renilla, run 1 = 8898; stable assay firefly, run 1 = 2.56e5.
Svil [DRSC08332] scored stable assay Renilla, run 1 = 6686; stable assay firefly, run 1 = 4.01e5.
Depletion of Svil [DRSC08333] resulted in: stable assay Renilla, run 1 = 5118; stable assay firefly, run 1 = 2.20e5.
Knock-down of Svil [DRSC08494] came out at: stable assay Renilla, run 1 = 6984; stable assay firefly, run 1 = 4.25e5.

Entries above whose target name starts with S or s:
Svil [DRSC07981] → stable assay Renilla, run 1: 5388; stable assay firefly, run 1: 4.32e5
Svil [DRSC08296] → stable assay Renilla, run 1: 8898; stable assay firefly, run 1: 2.56e5
Svil [DRSC08332] → stable assay Renilla, run 1: 6686; stable assay firefly, run 1: 4.01e5
Svil [DRSC08333] → stable assay Renilla, run 1: 5118; stable assay firefly, run 1: 2.20e5
Svil [DRSC08494] → stable assay Renilla, run 1: 6984; stable assay firefly, run 1: 4.25e5

Further records:
Against PolG1 [DRSC03621], the entry reads stable assay Renilla, run 1 = 7698; stable assay firefly, run 1 = 4.61e5.
Ggt-1 [DRSC19993] scored stable assay Renilla, run 1 = 6867; stable assay firefly, run 1 = 3.73e5.
Knock-down of Abca3 [DRSC20546] came out at: stable assay Renilla, run 1 = 6423; stable assay firefly, run 1 = 5.26e5.
t-Grip128 [DRSC07853] gave stable assay Renilla, run 1 = 4962; stable assay firefly, run 1 = 3.72e5.
For CG10171 [DRSC09711], the entry reads stable assay Renilla, run 1 = 8262; stable assay firefly, run 1 = 5.62e5.
